# Some of the results follow.
# By UniProt entry, the sequences of proteins in these tests, tags left out. Where a name states a change or a piece, a line headed by the entry shows the natural chain unless it says otherwise.
# UniProt Q8TB52: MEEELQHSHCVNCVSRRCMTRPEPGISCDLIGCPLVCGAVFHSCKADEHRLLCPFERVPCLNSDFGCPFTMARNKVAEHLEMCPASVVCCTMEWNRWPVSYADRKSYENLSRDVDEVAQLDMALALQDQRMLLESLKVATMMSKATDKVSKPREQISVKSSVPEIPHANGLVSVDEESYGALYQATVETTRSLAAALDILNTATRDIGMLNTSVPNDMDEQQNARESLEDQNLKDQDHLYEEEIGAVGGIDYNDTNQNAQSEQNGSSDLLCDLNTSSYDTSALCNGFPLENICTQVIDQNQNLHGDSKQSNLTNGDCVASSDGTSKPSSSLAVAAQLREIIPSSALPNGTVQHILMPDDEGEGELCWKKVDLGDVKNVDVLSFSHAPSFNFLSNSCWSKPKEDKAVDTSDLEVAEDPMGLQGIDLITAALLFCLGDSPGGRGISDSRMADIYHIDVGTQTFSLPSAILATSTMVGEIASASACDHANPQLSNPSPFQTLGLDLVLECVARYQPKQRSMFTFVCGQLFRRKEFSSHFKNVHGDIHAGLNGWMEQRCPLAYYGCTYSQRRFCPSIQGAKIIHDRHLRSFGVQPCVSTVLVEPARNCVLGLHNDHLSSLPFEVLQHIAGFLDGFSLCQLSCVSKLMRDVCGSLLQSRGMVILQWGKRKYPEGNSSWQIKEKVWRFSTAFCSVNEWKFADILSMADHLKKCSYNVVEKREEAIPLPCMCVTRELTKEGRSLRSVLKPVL
# UniProt O95864: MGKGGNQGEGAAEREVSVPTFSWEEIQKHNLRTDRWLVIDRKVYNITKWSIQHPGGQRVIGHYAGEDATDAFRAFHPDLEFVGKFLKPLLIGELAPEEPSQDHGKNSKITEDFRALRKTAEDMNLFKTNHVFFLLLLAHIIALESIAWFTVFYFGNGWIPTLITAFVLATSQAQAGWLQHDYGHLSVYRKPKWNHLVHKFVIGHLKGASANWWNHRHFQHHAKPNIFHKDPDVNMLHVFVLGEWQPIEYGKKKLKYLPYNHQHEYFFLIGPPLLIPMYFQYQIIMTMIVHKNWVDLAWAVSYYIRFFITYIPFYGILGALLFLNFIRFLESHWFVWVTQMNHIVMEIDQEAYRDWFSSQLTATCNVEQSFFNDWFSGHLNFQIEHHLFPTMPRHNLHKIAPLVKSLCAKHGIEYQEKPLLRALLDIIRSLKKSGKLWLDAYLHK
# UniProt Q96K12: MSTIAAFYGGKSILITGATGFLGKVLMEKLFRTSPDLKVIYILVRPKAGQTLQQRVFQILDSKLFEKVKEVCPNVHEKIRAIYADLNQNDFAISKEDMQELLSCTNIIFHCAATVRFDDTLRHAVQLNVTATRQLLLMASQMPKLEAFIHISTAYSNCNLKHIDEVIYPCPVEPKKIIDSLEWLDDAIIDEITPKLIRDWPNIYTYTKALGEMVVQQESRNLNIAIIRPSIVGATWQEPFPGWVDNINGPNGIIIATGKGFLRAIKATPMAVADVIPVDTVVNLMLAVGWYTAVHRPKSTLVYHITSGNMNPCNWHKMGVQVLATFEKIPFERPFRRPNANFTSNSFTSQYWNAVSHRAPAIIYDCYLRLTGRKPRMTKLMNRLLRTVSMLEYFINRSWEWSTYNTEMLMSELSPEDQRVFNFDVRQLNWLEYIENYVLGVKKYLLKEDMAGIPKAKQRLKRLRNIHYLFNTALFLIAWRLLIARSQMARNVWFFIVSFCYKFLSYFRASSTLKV
# UniProt Q96DB5: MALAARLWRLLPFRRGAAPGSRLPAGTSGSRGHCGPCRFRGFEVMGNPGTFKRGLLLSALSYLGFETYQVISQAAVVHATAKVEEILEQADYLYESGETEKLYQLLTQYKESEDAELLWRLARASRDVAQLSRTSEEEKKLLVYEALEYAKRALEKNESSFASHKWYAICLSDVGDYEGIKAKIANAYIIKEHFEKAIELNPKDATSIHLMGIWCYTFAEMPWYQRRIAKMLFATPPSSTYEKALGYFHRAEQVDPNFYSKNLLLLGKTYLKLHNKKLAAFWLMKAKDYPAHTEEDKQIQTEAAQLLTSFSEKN
# UniProt P34910: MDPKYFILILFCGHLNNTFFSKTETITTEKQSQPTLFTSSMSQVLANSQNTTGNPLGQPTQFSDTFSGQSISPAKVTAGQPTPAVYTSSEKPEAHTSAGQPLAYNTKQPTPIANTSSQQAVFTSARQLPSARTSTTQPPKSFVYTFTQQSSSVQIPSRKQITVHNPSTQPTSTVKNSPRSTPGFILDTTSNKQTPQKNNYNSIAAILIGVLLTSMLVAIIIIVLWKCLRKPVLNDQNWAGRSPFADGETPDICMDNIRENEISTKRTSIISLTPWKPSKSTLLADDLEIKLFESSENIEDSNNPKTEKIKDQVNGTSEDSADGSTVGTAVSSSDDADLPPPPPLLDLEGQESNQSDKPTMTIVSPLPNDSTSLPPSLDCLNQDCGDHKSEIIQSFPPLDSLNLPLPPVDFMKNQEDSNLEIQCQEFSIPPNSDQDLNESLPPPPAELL
# UniProt Q96B26, whole entry: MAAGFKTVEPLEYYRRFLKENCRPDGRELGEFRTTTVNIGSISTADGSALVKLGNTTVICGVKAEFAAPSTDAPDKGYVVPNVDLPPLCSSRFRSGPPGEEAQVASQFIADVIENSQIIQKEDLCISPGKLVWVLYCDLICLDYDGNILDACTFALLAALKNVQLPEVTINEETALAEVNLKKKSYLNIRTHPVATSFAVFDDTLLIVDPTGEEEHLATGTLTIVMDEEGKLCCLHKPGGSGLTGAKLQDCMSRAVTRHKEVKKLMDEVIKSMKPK
# UniProt Q96CU9: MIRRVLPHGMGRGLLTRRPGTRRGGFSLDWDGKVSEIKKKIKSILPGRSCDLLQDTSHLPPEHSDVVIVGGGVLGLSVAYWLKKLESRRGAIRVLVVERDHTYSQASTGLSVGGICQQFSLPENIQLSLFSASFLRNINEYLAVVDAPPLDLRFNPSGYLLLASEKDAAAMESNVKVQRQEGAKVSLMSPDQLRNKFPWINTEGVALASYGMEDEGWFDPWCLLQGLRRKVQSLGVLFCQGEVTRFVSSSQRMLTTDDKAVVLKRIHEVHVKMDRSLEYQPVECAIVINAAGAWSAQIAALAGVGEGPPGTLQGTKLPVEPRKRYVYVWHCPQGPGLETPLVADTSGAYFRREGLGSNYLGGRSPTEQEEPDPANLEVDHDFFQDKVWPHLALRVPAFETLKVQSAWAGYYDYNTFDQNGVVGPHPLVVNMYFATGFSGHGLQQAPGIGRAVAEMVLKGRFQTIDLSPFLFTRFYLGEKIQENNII
# UniProt Q8N128: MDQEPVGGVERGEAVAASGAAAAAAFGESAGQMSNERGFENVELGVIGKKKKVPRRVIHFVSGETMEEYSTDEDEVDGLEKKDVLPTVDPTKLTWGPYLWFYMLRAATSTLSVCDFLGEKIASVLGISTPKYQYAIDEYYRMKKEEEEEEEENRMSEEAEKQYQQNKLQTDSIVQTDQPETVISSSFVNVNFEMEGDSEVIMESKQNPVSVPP
# UniProt Q9UKA2: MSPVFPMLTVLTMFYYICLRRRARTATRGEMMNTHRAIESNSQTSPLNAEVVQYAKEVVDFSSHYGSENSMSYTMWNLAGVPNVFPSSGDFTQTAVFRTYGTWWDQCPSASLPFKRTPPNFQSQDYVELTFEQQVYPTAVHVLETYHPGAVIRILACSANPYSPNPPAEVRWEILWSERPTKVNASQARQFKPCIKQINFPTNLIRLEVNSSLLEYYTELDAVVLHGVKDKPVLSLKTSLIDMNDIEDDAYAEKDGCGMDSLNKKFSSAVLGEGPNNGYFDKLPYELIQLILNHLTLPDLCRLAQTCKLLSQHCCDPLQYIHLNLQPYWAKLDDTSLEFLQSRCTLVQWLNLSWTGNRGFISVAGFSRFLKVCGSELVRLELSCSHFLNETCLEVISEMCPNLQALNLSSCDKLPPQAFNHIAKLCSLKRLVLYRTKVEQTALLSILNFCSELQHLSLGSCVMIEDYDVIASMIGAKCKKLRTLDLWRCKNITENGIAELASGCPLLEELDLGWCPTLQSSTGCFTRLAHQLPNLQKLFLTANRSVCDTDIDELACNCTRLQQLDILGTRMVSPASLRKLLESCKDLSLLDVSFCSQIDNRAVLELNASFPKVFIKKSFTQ
# UniProt Q9UBU6: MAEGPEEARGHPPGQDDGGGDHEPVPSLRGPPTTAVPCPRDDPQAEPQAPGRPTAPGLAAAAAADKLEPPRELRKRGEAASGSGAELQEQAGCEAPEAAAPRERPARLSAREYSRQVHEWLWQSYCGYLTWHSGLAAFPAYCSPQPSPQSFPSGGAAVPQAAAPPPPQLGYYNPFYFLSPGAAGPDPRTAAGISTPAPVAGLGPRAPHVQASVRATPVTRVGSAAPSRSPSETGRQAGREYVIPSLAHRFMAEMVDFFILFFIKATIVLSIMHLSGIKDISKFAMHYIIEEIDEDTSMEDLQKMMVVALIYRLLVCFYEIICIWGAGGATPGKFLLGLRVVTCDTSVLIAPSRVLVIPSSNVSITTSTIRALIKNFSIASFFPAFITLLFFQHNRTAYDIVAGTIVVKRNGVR
# UniProt Q9NX05: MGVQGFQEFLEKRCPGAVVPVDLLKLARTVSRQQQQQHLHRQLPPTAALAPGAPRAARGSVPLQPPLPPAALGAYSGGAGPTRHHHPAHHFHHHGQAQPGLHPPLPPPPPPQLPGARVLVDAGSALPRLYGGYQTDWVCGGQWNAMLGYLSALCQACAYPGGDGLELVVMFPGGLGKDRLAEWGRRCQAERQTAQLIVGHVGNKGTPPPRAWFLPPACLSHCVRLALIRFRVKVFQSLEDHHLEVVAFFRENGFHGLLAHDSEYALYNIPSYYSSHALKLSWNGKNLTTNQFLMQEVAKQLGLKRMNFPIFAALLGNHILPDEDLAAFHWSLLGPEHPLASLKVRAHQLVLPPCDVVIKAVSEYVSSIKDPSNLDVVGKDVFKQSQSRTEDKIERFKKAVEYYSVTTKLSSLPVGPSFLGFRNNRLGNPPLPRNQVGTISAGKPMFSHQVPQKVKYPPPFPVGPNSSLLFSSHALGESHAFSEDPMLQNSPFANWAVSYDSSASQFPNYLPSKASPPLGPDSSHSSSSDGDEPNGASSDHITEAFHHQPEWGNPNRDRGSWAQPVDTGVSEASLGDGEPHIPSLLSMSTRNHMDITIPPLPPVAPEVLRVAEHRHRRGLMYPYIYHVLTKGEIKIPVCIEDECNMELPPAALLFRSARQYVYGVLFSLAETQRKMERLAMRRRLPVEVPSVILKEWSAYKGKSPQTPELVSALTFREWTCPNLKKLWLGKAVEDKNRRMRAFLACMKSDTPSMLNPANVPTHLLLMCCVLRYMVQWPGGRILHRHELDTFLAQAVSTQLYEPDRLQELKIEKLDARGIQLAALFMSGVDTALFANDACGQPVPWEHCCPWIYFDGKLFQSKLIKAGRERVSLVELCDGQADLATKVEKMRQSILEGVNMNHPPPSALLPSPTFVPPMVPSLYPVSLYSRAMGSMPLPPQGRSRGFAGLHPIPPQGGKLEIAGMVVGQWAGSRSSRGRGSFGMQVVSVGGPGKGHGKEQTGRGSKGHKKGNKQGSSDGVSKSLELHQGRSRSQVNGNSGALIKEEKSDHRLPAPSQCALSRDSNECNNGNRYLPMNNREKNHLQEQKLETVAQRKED
# UniProt Q9NQT5, whole entry: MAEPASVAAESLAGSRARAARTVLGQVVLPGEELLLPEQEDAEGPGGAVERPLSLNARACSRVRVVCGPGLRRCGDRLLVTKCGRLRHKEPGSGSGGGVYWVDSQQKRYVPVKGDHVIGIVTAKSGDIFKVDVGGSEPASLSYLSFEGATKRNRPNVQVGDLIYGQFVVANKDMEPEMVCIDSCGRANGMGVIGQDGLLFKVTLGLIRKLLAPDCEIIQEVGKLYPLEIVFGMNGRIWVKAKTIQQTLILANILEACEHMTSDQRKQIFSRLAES
# UniProt Q9H334: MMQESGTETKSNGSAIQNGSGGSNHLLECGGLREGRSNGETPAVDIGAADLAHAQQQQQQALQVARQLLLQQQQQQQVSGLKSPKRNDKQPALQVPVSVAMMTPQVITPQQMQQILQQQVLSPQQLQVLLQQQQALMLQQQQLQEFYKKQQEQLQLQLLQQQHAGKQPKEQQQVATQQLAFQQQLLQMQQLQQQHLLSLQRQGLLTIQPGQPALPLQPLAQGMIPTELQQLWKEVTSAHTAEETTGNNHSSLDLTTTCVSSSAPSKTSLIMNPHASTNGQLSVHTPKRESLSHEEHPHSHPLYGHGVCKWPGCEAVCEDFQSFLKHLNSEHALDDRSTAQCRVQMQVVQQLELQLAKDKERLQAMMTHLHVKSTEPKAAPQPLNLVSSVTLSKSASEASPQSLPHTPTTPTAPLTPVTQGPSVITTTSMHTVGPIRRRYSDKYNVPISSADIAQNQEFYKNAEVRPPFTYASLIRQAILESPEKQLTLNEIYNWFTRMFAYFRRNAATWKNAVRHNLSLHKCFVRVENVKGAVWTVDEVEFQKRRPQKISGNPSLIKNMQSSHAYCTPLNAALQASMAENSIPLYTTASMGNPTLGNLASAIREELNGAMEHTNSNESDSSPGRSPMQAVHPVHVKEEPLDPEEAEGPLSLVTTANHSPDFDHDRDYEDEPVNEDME
# Compound: COc1ccc(Cn2ccc3ccc(C(=O)NO)cc32)cc1
# Assay: dose-dependent thermal stabilisation call (2D-TPP, DLPTP, 10% FDR) (binary (1 = stabilised)); higher = stabilised by the compound
# Conditions: system: HL-60 intact cells; concentration range 0.04-10 µM
row,Target,dose-dependent thermal stabilisation call
1,FBXO30 (UniProt Q8TB52),inactive: 0
2,FADS2 (UniProt O95864),inactive: 0
3,FAR2 (UniProt Q96K12),inactive: 0
4,FAM82B (UniProt Q96DB5),inactive: 0
5,FIGNL1 (UniProt Q6PIW4),inactive: 0
6,FAM91A1 (UniProt Q658Y4),inactive: 0
7,FNTB (UniProt P49356),inactive: 0
8,EVI2B (UniProt P34910),inactive: 0
9,FAM129A (UniProt Q9BZQ8),inactive: 0
10,EXOSC8 (UniProt Q96B26),inactive: 0
11,FLII (UniProt Q13045),inactive: 0
12,FLJ20323,inactive: 0
13,FOXRED1 (UniProt Q96CU9),inactive: 0
14,FAM3C (UniProt Q92520),inactive: 0
15,FAM177A1 (UniProt Q8N128),inactive: 0
16,FAM20B (UniProt O75063),inactive: 0
17,FBXW11 (UniProt Q9UKB1),inactive: 0
18,FBXL4 (UniProt Q9UKA2),inactive: 0
19,EXOSC6 (UniProt Q5RKV6),inactive: 0
20,FAM136A (UniProt Q96C01),inactive: 0
21,FAM8A1 (UniProt Q9UBU6),inactive: 0
22,FAR1 (UniProt Q8WVX9),inactive: 0
23,FAM120C (UniProt Q9NX05),inactive: 0
24,FANCB (UniProt Q8NB91),inactive: 0
25,FAH (UniProt P16930),inactive: 0
26,EXOSC3 (UniProt Q9NQT5),inactive: 0
27,FOXP1 (UniProt Q9H334),inactive: 0

# Rewritten with bars between the fields: part of the list above.
row | Target | dose-dependent thermal stabilisation call
10 | EXOSC8 (UniProt Q96B26) | inactive: 0
11 | FLII (UniProt Q13045) | inactive: 0
